# Measurements taken from PubChem BioAssay AID2685 (National Center for Advancing Translational Sciences (NCATS), 2010).
# The other results are listed elsewhere or left out. The main result of the screen is listed elsewhere. These columns were measured beside it and carry no call. Most of these compounds were active or inconclusive in the main read-out, so they are no random draw. Potencies come from curve fits of mixed quality, noted in brackets.
# Assay: qHTS Assay for Lipid Storage Modulators in Drosophila S3 Cells;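 as to cell number change: cells counted by Cell Tracker Red CMTPX staining in the red channel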
# Conditions: BODIPY lipid droplet fluorescence, 18-24 h; for cell number change: measured here: cell count max response, cells fed with added oleic acid
# In short: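 Drosophila S3 cells got compounds at several concentrations plus oleic acid (400 uM solution). Laser-scanning cytometry with 488 nm excitation read lipid droplets at 500-530 nm and cells at 575-640 nm. Percent activity was relative to 20 uM Triacsin C.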
# [1] = measured here: cell number channel AC50, cells fed with added oleic acid
# [2] = measured here: lipid fluorescence (Fed channel) AC50, cells fed with added oleic acid
Compound,cell number change [%],AC50 [1],AC50 [2]
COc1ccc(S(=O)(=O)Nc2cc(Sc3ncn[nH]3)c(O)c3ccccc23)cc1,-32,"16.4 µM [falling, single point]","18.4 µM [falling, partial curve]"
COc1ccc(CC(=O)OCC(=O)NCc2ccccc2Cl)cc1OC,-59.3,"29.1 µM [falling, single point]",
COc1ccc(/C=N/NC(=S)Nc2ccccc2)cc1COc1ccc(F)cc1,-10.9,,"0.116 µM [rising, full curve, poor fit]"
Cc1ccc(S(=O)(=O)N(CC(=O)Nc2ccc(C)cc2C)C(=O)N2CCN(C)CC2)cc1,5.33,,"23.1 µM [falling, single point]"
Cc1ccc(S(=O)(=O)Nc2nc3ccccc3nc2NCC2CCCO2)cc1 (stereo unspecified),9.18,,"0.58 µM [rising, partial curve]"
Cc1c(O)c(CN2CCCCC2)cc2c3c(c(=O)oc12)CCC3,-12.5,,"1.16 µM [rising, single point]"
Cc1cnc(NC(=O)CCCc2nc3ccccc3s2)s1,,"4.11 µM [falling, single point]","5.8 µM [falling, partial curve]"
CCOCCCNC(=S)N(CCO)Cc1cc2cc3c(cc2[nH]c1=O)OCCO3,-23,,"29.1 µM [falling, single point]"
Clc1ccccc1-c1nc(-c2ccc(Br)o2)no1,-1.01,"6.51 µM [falling, single point]",
Cc1c(C#N)c(N)nc2c3c(sc12)NC(=O)CC3c1ccccc1 (stereo unspecified),13.6,,"13 µM [rising, single point]"
CCC(=O)NC(=S)Nc1ccc(NC(=O)c2ccc(C)c([N+](=O)[O-])c2)cc1,7.78,"1.84 µM [rising, partial curve]",
CN1C(=O)CC(Sc2ncccc2C(=O)O)C1=O (stereo unspecified),-19.1,,"3.26 µM [falling, full curve, poor fit]"
COCCNC(=O)CN(C(=O)CCC(=O)Nc1nccs1)c1ccc2c(c1)OCO2,5.98,,"0.164 µM [falling, full curve, poor fit]"
COc1ccc(C(=O)/C=C(\N)C(F)(F)F)c(O)c1,0.404,,
COc1ccc(CC(=O)NC(=S)Nc2ccc(S(N)(=O)=O)cc2)cc1,85.1,"4.11 µM [rising, full curve]",
O=C(c1ccccc1)N1CCN(C(=O)c2ccc(OC(F)(F)F)cc2)CC1,-4.69,,"29.1 µM [rising, partial curve, poor fit]"
O=C(Nc1ccc([N+](=O)[O-])cc1)Nc1ccc2[nH]c(=O)[nH]c2c1,-50.2,,
Cc1ccc(N2CCCn3c2nc2c3c(=O)n(CC(=O)OCc3ccccc3)c(=O)n2C)cc1C,8.07,,"5.17 µM [rising, single point]"
COc1ccc(NC(=O)CSc2ccc3c(c2)OCCO3)cc1OC,-29.6,,
CCOc1ccc(N(CC(=O)Nc2ccccc2OC)S(=O)(=O)c2ccccc2)cc1,10.8,,"11.6 µM [rising, partial curve]"
Cc1occc1C(=O)N1CCCC(Nc2ccc(F)cc2)C1 (stereo unspecified),21.3,,"6.51 µM [rising, full curve]"

Compound,cell number change [%],AC50 [1],AC50 [2]
Cc1cc2c(cc1C)C(c1ccccc1OC(C)C)CC(=O)N2 (stereo unspecified),-36.2,,
COc1cc(NC(=S)NC(=O)CCc2ccccc2)cc(OC)c1,30.7,"23.1 µM [rising, single point]","32.6 µM [rising, partial curve, poor fit]"
CC(=O)N1CCN(S(=O)(=O)c2cccc(C(=O)Nc3cc(C(F)(F)F)ccc3N3CCOCC3)c2)CC1,17.4,"0.00517 µM [rising, full curve, poor fit]","0.00651 µM [rising, full curve, poor fit]"
CNNC(=O)C(=O)NNS(=O)(=O)c1ccccc1,-48.9,,
Cc1cc(NC(=O)CCS(=O)(=O)c2nc(-c3ccccc3)cc(C(F)(F)F)n2)no1,-88.1,"18.4 µM [falling, single point]","1.16 µM [rising, partial curve]"
CCCC(=O)Nc1ccc(Cl)c(NC(=O)c2ccco2)c1,80.8,"0.731 µM [rising, single point]","0.58 µM [rising, single point]"
CCN(CC(=O)Nc1ccccc1C(F)(F)F)C(=O)C1CCN(C(=O)Nc2ccccc2)CC1,-57.2,"11.6 µM [falling, partial curve]","0.00731 µM [falling, full curve, poor fit]"
CCCCCCc1nnc(N)s1,,,"1.84 µM [rising, partial curve]"
O=C(Nc1cccc2ncccc12)c1cc2ccccc2o1,6.63,,"2.59 µM [rising, partial curve]"
Cc1cc(C(F)F)n2ncc(C(=O)NCc3ccccc3F)c2n1,32.7,"3.26 µM [rising, full curve, poor fit]","6.51 µM [rising, partial curve]"
c1ccc(Nc2nc(-c3ccncc3)cs2)nc1,20.5,,"29.1 µM [rising, partial curve, poor fit]"
CN(C)CCCNC(=O)/C=C/c1ccc(OCc2c(F)cccc2Cl)cc1,2.16,,
N#CC1=C(C2CC2)CC(c2ccccc2)C(C#N)=C1N (stereo unspecified),1.99,"0.461 µM [falling, partial curve, poor fit]","1.3 µM [rising, single point]"
Cc1noc(NS(=O)(=O)c2ccc(NC(=O)CCC3CCCCC3)cc2)c1C,-4.81,,"20.6 µM [falling, single point]"
Cc1ccc(OCCNC(=O)CCNC(=O)c2ccc(Cl)cc2)cc1,-9.15,"0.58 µM [falling, full curve, poor fit]","0.58 µM [falling, full curve]"
CCN(CC)P(=O)(c1ccccc1)c1c(C)nc2ccccn12 (stereo unspecified),-7.62,,"6.51 µM [falling, single point]"
O=S(=O)(c1cccc2nsnc12)N1CCN(c2ncccn2)CC1,57.4,"29.1 µM [rising, single point]","4.11 µM [falling, partial curve]"
COc1ccc(-c2cc(C(=O)Nc3ccc(C)cc3)no2)cc1,-2.49,,"0.231 µM [rising, full curve]"
O=C(Nc1nc(-c2cccc(Br)c2)cs1)Oc1ccccc1,83.8,,
CCOC(=O)c1cnc(N2CCOCC2)[nH]c1=O,1.98,,
Cc1cc(NC(=O)CSc2nnc3c(C)cc4c(C)ccc(C)c4n23)no1,3.91,,

Compound,cell number change [%],AC50 [1],AC50 [2]
CC(C)CN(C(=O)Cn1ccccc1=O)C1CCS(=O)(=O)C1 (stereo unspecified),6.09,,
NC(=O)c1cc(Cl)ccc1OCC(=O)Nc1ccc2c(c1)OCO2,-10.2,,
Cc1cccc(-c2oc3ccccc3c2-c2ccc3c(c2)OCO3)c1,6.47,,"29.1 µM [rising, single point]"
COc1cc(C2CC(c3c(C)cc(C)[nH]c3=O)=NN2c2ccccc2F)cc(OC)c1OC (stereo unspecified),5.41,,
O=C(Nc1cccc(S(=O)(=O)N2CCOCC2)c1)c1cn(-c2ccccc2)nc1-c1ccccc1,,"2.06 µM [rising, partial curve]",
Cc1nn(-c2ccccc2)c2sc(C(=O)C(C#N)c3ccccn3)cc12 (stereo unspecified),,"4.61 µM [rising, single point]",
COc1ccc(CC(=O)Nc2nc(-c3cccnc3)cs2)cc1,,"6.51 µM [rising, single point]","0.326 µM [rising, partial curve, poor fit]"
O=C(O)c1ccc(N/N=C/c2ccc(-c3cccc(Cl)c3)o2)cc1,,,"0.461 µM [rising, full curve]"
CCOc1ccc2nc(SCc3ccc(OC)cc3)sc2c1,16.1,,"9.2 µM [rising, partial curve]"
CCOC(=O)N1CCc2c(sc(NC(=O)CCS(=O)(=O)c3ccccc3)c2C(N)=O)C1,-24.6,,
Cc1sc(NC(=O)C2CCCCC2)c(C#N)c1-c1ccccc1,7.13,,
COc1ccc(S(=O)(=O)N2CCOC23CCN(S(=O)(=O)c2ccc(Cl)cc2)CC3)cc1,,,"0.103 µM [falling, full curve, poor fit]"
C(=N\Nc1nc2ccccc2[nH]1)/c1cccc2cccnc12,-41.8,"23.1 µM [falling, partial curve]","16.4 µM [falling, partial curve]"
CCC(c1nnc(SCC(=O)Nc2cccnc2Cl)n1-c1ccccc1)N(C)C (stereo unspecified),22.2,,
Cc1ccc(N2CCN(S(=O)(=O)N3CCCCC3)CC2)cc1Cl,19,,"29.1 µM [rising, single point]"
CCOC(=O)c1c(CN2CCOCC2)oc2ccc(OC(C)=O)cc12,0.739,,"0.00517 µM [rising, full curve, poor fit]"
CCN1CCN(CCCNC(=O)CCC(=O)N2CC(C)Oc3ccc(C)cc32)CC1 (stereo unspecified),10.7,,"6.51 µM [rising, single point]"
Cc1sc2ncn(CC(=O)NCC(=O)N(C)C3CCCCC3)c(=O)c2c1C,-12.6,,"0.116 µM [falling, full curve, poor fit]"
COCCNc1nc(-c2ccc(OC)cc2)c(-c2ccc(OC)cc2)s1,-67.5,"32.6 µM [falling, single point]",
CCOc1ccccc1NC(=O)CSc1nc(=O)n(CCN2CCOCC2)c2c1CCCC2,5.49,"0.146 µM [falling, full curve, poor fit]","0.164 µM [falling, full curve, poor fit]"

# Ordered by formula weight (smallest number first): some entries from above.
Compound,cell number change [%],AC50 [1],AC50 [2]
C(=N\Nc1nc2ccccc2[nH]1)/c1cccc2cccnc12,-41.8,"23.1 µM [falling, partial curve]","16.4 µM [falling, partial curve]"
Cc1ccc(N2CCN(S(=O)(=O)N3CCCCC3)CC2)cc1Cl,19,,"29.1 µM [rising, single point]"
CCC(c1nnc(SCC(=O)Nc2cccnc2Cl)n1-c1ccccc1)N(C)C (stereo unspecified),22.2,,
COc1cc(C2CC(c3c(C)cc(C)[nH]c3=O)=NN2c2ccccc2F)cc(OC)c1OC (stereo unspecified),5.41,,
CCOc1ccccc1NC(=O)CSc1nc(=O)n(CCN2CCOCC2)c2c1CCCC2,5.49,"0.146 µM [falling, full curve, poor fit]","0.164 µM [falling, full curve, poor fit]"
